About 20 (1%) of roughly 1,600 compounds showed an effect of 50% or more. Some of the results follow.

The subject of the assay is T1, E. coli pLC1021 (luc-trpAt trans-translation reporter).
T1 construct: pLC1021 luc-trpAt reporter strain
On the set-up: species or system Escherichia coli pLC1021; luc-trpAt non-stop luciferase reporter; luminescence rises when trans-translation is inhibited; normalized to KKL-35 and DMSO. The note with it: reporter signal, KKL-35 = 100%; rise means trans-translation inhibition; 2 h, 20 µM. In short, it runs like this: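 Luminescence (560 nm, 10 min after Bright-Glo) reports luciferase that escapes trans-translation tagging, measured after 2 h room-temperature treatment with 20 µM compound. Each plate was scaled between DMSO (negative) and 20 µM KKL-35 (positive) controls. Compounds scoring one standard deviation above the median counted as positive; at least two biological repeats.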
Turning to `N#Cc1nc(-c2ccccc2)oc1S(=O)(=O)c1ccc(Cl)cc1` [KKL-1705], the “% activation” value was determined as 0%.

In the case of `Clc1ccc(CCNc2cc(-c3ccccc3)nc3ncnn23)cc1` [KKL-1751], the “% activation” value turned out to be 0%.

For `COc1cccc(-n2nnnc2S(C)(=O)=O)c1` [KKL-0610], the “% activation” value was 0%.

`Cc1ccc(CN(CCCn2ccnc2)Cc2cccn2-c2cccc(F)c2)o1` [KKL-0439]: the “% activation” value is on record as 9%.

In the case of `CC(=O)Oc1cccc2ccc(/C=C/c3ccc(F)cc3)nc12` [KKL-1391], the “% activation” value was found to be 9%.

Turning to `O=[N+]([O-])c1cccc(NC(S)=Nc2ccc(Cl)c(C(F)(F)F)c2)c1` [KKL-1319], the “% activation” value is 0%.

As for `COc1ccccc1N1C(=O)c2cccc3cc([N+](=O)[O-])cc(c23)C1=O` [KKL-1508], the “% activation” value came to 0%.

Turning to `O=[N+]([O-])c1ccc(C=Nn2c(CO)nc3ccccc32)s1` [KKL-0991], the “% activation” value was 0%.

On to `O=C(Nc1ccc(-c2nc3ccccc3c(=O)o2)cc1)c1ccccc1I` [KKL-1501], for which the “% activation” value is reported as 2%.

In the case of `COC(=O)COc1ccc2c(-c3cccc([N+](=O)[O-])c3)cc(=O)oc2c1` [KKL-0762], the “% activation” value stood at 0%.

Regarding `COC(=O)[C@@H]1Cc2c([nH]c3ccccc23)[C@H]2C[C@H](NCc3cccnc3)C[C@@H](c3ccc(C(F)(F)F)cc3)N21` [KKL-1613], the “% activation” value stood at 0%.

Consider `COc1ccc(C(=O)NC(=S)Nc2ccc([N+](=O)[O-])cc2O)cc1Br` [KKL-1437], for which the “% activation” value stood at 5%.

Regarding `O=C(NCc1ccoc1)N1CCN(Cc2ccc3c(c2)OCO3)CC1` [KKL-1720], the “% activation” value was determined as 3%.

For the molecule `CC(C)(C)c1ncc(C(=O)N2CCc3[nH]c4c(Cl)cccc4c3C2)cn1` [KKL-0673], the “% activation” value was 1%.

As for `COc1ccccc1-c1coc2cc(OCC(=O)OC3CCCCC3)ccc2c1=O` [KKL-1400], the “% activation” value worked out at 0%.

`COc1ccc2c(c1)NC1(COC3(CCN(Cc4cccc(Cl)c4)CC3)C1)c1cccn1-2` (stereo not shown) [KKL-0328]: the “% activation” value came to 0%.

As to `c1ccc(Cc2nnc(Sc3ccnc(N4CCN(c5ccncc5)CC4)n3)n2CCN2CCOCC2)cc1` [KKL-1730], the “% activation” value was 0%.

For the molecule `CCOC(=O)C(C)Oc1ccc2c(-c3ccc(OC)cc3)cc(=O)oc2c1` (stereo not shown) [KKL-0763], the “% activation” value worked out at 0%.

For `Cc1cccc(-c2cc3nc(C)c(C)c(NCCCn4ccnc4)n3n2)c1` [KKL-1630], the “% activation” value came out at 0%.

Regarding `COC(=O)C(C)Sc1nnc(-c2ccc(Br)cc2)o1` (stereo not shown) [KKL-0759], the “% activation” value amounted to 0%.

In the case of `O=C(CSc1ccc(C(F)(F)F)cc1[N+](=O)[O-])OC1CCCCC1` [KKL-1422], the “% activation” value stood at 1%.

On to `CC(C)(C)NCCCCOc1ccc(Cl)cc1C(C)(C)C` [KKL-1275], for which the “% activation” value is 0%.

`CCn1ccnc1CN(C)Cc1cn(-c2ccc(C)cc2)nc1-c1cccc(C)c1` [KKL-0665]: the “% activation” value is recorded as 0%.

As to `Cc1cccc(NC(=S)NC(=O)CC23CC4CC(CC(C4)C2)C3)c1` [KKL-1311], the “% activation” value amounted to 0%.

For the molecule `COc1ccc(N=c2cc(-c3ccc(O)cc3)oc3ccccc23)cc1` [KKL-0846], the “% activation” value was determined as 0%.

On to `CCOC(=O)c1sc2nc(CSc3ccccc3)nc(N3CCCN(C)CC3)c2c1C` [KKL-0828], for which the “% activation” value was determined as 0%.

For `Cc1nn(-c2ccccc2)c(S)c1C=Nc1ccccc1O` [KKL-0767], the “% activation” value worked out at 0%.

As for `Oc1c(CN2CCc3ccccc3C2)cc(Cl)c2cccnc12` [KKL-0391], the “% activation” value is recorded as 42%.

Consider `Cc1ccc(NC(=O)C(C)NS(=O)(=O)c2ccc(Cl)cc2)cc1Cl` (stereo not shown) [KKL-1552], for which the “% activation” value was 0%.

Consider `COc1ccc(-c2cc([C@H]3CN4CC[C@H]3C[C@@H]4COC(=O)Nc3cccc(C(F)(F)F)c3)n(C)n2)cc1OC` [KKL-0324], for which the “% activation” value was 0%.

Consider `Cc1cc(C(F)(F)F)c2c(NCc3cccc4cccnc34)[nH]nc2n1` [KKL-1237], for which the “% activation” value worked out at 6%.

Regarding `CCOC(=O)c1cnc(-n2nc(C)cc2C)nc1N(CC)CC` [KKL-0372], the “% activation” value turned out to be 0%.

Regarding `Cc1ccc(Sc2ccc(C=O)o2)cc1` [KKL-1483], the “% activation” value was determined as 0%.

With `COc1ccc(OC(C)C(=O)Nc2ccc(I)cc2)cc1` (stereo not shown) [KKL-1557], the “% activation” value came out at 0%.

As for `O=C(OCC#CCSc1nnc(-c2ccc(Br)cc2)o1)c1cccs1` [KKL-0368], the “% activation” value is listed as 0%.

Turning to `Cc1ccc(C2CC(C(F)(F)F)n3ncc(C(=O)NCc4ccco4)c3N2)cc1` (stereo not shown) [KKL-1133], the “% activation” value is reported as 0%.

As for `COC(=O)c1ccc(OCC(=O)Nc2ccccc2F)cc1` [KKL-1334], the “% activation” value was determined as 0%.

On to `O=[N+]([O-])c1cccc(NC(S)=Nc2ccc(Cl)c(Cl)c2)c1` [KKL-1588], for which the “% activation” value was 0%.

On to `CCOc1cccc(-c2csc(NC(=O)c3cnc(SC)nc3)n2)c1` [KKL-0467], for which the “% activation” value stood at 0%.

Consider `CCCc1ccc2oc(C(=O)NCCc3ccc(O)cc3)c(C)c2c1` [KKL-1185], for which the “% activation” value was 2%.

Regarding `Cc1ccccc1CN1CCC(O)(c2ccc(Cl)c(C(F)(F)F)c2)CC1` [KKL-1761], the “% activation” value came to 3%.

Turning to `CCCCSc1ccc(NCCC(=O)c2ccco2)cc1` [KKL-1462], the “% activation” value is 3%.

Turning to `CCN(CC)c1ccc(NC(S)=NCCc2ccc(OC)c(OC)c2)cc1` [KKL-1550], the “% activation” value is listed as 0%.

For the molecule `CC1CCN(C(=S)NC(=O)c2ccc(Cl)cc2)CC1` [KKL-0746], the “% activation” value turned out to be 13%.

`N#Cc1ccccc1NC(=O)CSc1nc2cc3ccccc3cc2[nH]1` [KKL-0612]: the “% activation” value is reported as 0%.

`O=C(c1ccc2c(c1)no[n+]2[O-])N1CCCC(N2CCN(c3ccc(F)cc3)CC2)C1` (stereo not shown) [KKL-0626]: the “% activation” value stood at 4%.

In the case of `COc1cccc(CN2CCC(c3c[nH]c4ccc(OC)cc34)C2)c1` (stereo not shown) [KKL-0514], the “% activation” value was 2%.

For the molecule `O=C(Nc1cccc(Cl)c1)c1cc(Br)ccc1Cl` [KKL-0866], the “% activation” value turned out to be 0%.

As for `O=C(N[C@@H]1CN(C(=O)Nc2ccc(OC(F)(F)F)cc2)CCC[C@H]1O)c1ccc(OCc2ccccc2)cc1` [KKL-0549], the “% activation” value turned out to be 1%.

`COC(=O)COc1ccc(NC(=O)c2ccccc2Br)cc1` [KKL-1572]: the “% activation” value was found to be 0%.

Regarding `CCN(C(=O)C1CCCCC1)c1nc2c(s1)CCc1oc(C)cc1-2` [KKL-0332], the “% activation” value was found to be 0%.

Take `O=C(CSc1ccc(Cl)cc1)Nc1ccc(Cl)c(C(F)(F)F)c1` [KKL-0865]: the “% activation” value is 0%.

Consider `O=C(Nc1cccnc1)c1c(O)c2cccc3c2n(c1=O)CC3` [KKL-0455], for which the “% activation” value is reported as 0%.

With `O=[N+]([O-])c1ccc2[nH]c(CSc3nc4ccccc4o3)nc2c1` [KKL-0291], the “% activation” value is on record as 0%.

As for `CC(C)Cn1ncc2c1CCc1sc(N(C)C(=O)c3noc4c3CCCC4)nc1-2` [KKL-0445], the “% activation” value is on record as 0%.

With `NC1CCc2nc(-c3ccncc3)nc(Nc3cccc(C(F)(F)F)c3)c2C1` (stereo not shown) [KKL-0541], the “% activation” value is given as 802%.

As for `CCOC(=O)COc1ccc2c(=O)c(-c3ccccc3Cl)c(C)oc2c1C` [KKL-0749], the “% activation” value is given as 2%.

For `CCC(NCc1cn(-c2ccc(C)cc2)nc1-c1cccc(C)c1)c1ccncc1` (stereo not shown) [KKL-1165], the “% activation” value came to 0%.

Turning to `Cc1ccc(N=C2C=C(NS(=O)(=O)c3cccs3)c3ccccc3C2=O)c(C)c1` [KKL-1144], the “% activation” value came to 0%.

On to `COc1cccc(O)c1CN1CCC(C(=O)Nc2ccc(-c3cccc(C)c3)cc2)CC1` [KKL-0508], for which the “% activation” value was found to be 0%.

For the molecule `Cc1nc([N+](=O)[O-])c(Br)n1Cc1ccc(Cl)c(Cl)c1` [KKL-1116], the “% activation” value is given as 0%.

As for `Cc1cc(C)cc(NC(=O)COc2cccc(C=O)c2)c1` [KKL-0574], the “% activation” value was 1%.

In the case of `S=C(NCCc1ccc(Cl)cc1)Nc1ccc(Nc2ccccc2)cc1` [KKL-1444], the “% activation” value is recorded as 4%.

Regarding `CSCCC(=O)N1CCCC(C(=O)Nc2cccc(-c3ccc(F)cc3)c2)C1` (stereo not shown) [KKL-0635], the “% activation” value worked out at 9%.

As to `CCc1cccc2c(C(=O)COC(=O)c3ccc([N+](=O)[O-])s3)c[nH]c12` [KKL-0796], the “% activation” value is on record as 40%.

Turning to `O=C(Oc1ccccc1)c1cccc2cccnc12` [KKL-0585], the “% activation” value came to 0%.

On to `O=C(Oc1cccc2cccnc12)c1ccco1` [KKL-0756], for which the “% activation” value was found to be 0%.

With `O=C(/C=C/c1ccccc1)/C=C/c1ccccc1` [KKL-1604], the “% activation” value is 0%.

For the molecule `CCn1c(C)cc2cc(NC(=O)c3cnc(SC)nc3)ccc21` [KKL-0459], the “% activation” value is 3%.

On to `Fc1ccc(Cc2nnc(-c3ccnc(Nc4ccc(OCCN5CCOCC5)cc4)n3)[nH]2)cc1` [KKL-1879], for which the “% activation” value is 2%.

Regarding `O=C(CSc1ccc(Cl)cc1)Nc1ccc(Br)cn1` [KKL-0722], the “% activation” value is recorded as 8%.

Take `O=C(Oc1c(Cl)cc(Cl)c2cccnc12)c1ccco1` [KKL-1639]: the “% activation” value is given as 0%.

Regarding `COc1ccc(Nc2ccccc2NC(=O)c2ccc(O)nc2)cc1` [KKL-1702], the “% activation” value was 2%.

As to `CC1CCN(c2nc(-c3ccncc3)nc3ccccc23)CC1` [KKL-1078], the “% activation” value is given as 1%.

Take `CC(=O)c1ccc(S(=O)(=O)c2ccc(C)cc2)c([N+](=O)[O-])c1` [KKL-0967]: the “% activation” value stood at 8%.

`COc1cc(CN2CCC3(C=Cc4ccccc43)CC2)cc2c1OCO2` [KKL-1680]: the “% activation” value was determined as 4%.

As for `C[C@H]1CN(C(=O)c2cc(-c3ccc4c(c3)OCO4)on2)[C@@H](C)CN1Cc1ccco1` [KKL-0546], the “% activation” value stood at 0%.

Regarding `CCOC(=O)c1c(NC(=O)c2c(F)c(F)c(F)c(F)c2F)sc(C(=O)OC)c1C` [KKL-1578], the “% activation” value is recorded as 0%.

`O=[N+]([O-])c1ccc(N2CCN(C(S)=NCc3ccc(Cl)cc3)CC2)cc1` [KKL-1318]: the “% activation” value came out at 0%.

As to `Cc1ccccc1C1c2[nH]c3ccccc3c2CCN1C(=O)c1cccc(C#CC(C)(C)O)c1` (stereo not shown) [KKL-1154], the “% activation” value was 0%.

For the molecule `COc1ccc2c(c1)CCC1Sc3ccccc3N=C21` (stereo not shown) [KKL-1412], the “% activation” value came to 0%.

For the molecule `C1=CC2CC1CC2CN1CCC(N(CCc2ccccc2)Cc2ccccc2)CC1` (stereo not shown) [KKL-0906], the “% activation” value came out at 0%.

Regarding `COc1c2ccoc2nc2c(OC)cccc12` [KKL-1232], the “% activation” value was found to be 0%.

With `Cc1ccccc1/C=C/c1ccc2cccc(O)c2n1` [KKL-0432], the “% activation” value is on record as 11%.

Take `COc1ccc(-c2[nH]c(-c3ccc([N+](=O)[O-])cc3)nc2-c2ccccc2)cc1` [KKL-0418]: the “% activation” value turned out to be 11%.

The values above are taken from publication PMC12548414.
